# Measured values from publication PMC8384837.
# Positions count from the first letter of the chain named. Some of the results follow. For some assays here: At the low end of the ranking the order means little.
# Key:
# Conditions in all cases: yeast three-hybrid, YBZ-1, SC-Leu-His + 0.5 mM 3-AT, 4 days
# [1] = molecular target: T1, PUM1 PUF domain R2-KKG N899K + Y900K + Q903G (Homo sapiens) (UniProt Q14671)
# T1 sequence: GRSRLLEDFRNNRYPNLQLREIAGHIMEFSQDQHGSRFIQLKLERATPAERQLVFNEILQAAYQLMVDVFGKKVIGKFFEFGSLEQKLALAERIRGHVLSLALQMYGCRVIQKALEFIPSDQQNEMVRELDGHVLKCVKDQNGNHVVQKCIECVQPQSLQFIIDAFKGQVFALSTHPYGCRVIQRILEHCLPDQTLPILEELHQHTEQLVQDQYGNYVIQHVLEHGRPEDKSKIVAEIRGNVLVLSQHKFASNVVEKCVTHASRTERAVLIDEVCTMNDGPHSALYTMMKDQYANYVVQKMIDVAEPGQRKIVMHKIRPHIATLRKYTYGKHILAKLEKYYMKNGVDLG
# [2] = molecular target: T2, PUM1 PUF domain R2-LFG N899L + Y900F + Q903G (Homo sapiens) (UniProt Q14671)
# T2 sequence: T1 sequence with K72L, K73F
# [3] = molecular target: T3, PUM1 PUF domain R2-LWV N899L + Y900W + Q903V (Homo sapiens) (UniProt Q14671)
# T3 sequence: T1 sequence with K72L, K73W, G76V
# [4] = molecular target: T4, PUM1 PUF domain R2-LWY N899L + Y900W + Q903Y (Homo sapiens) (UniProt Q14671)
# T4 sequence: T1 sequence with K72L, K73W, G76Y
# [5] = molecular target: T5, PUM1 PUF domain R2-RKA N899R + Y900K + Q903A (Homo sapiens) (UniProt Q14671)
# T5 sequence: T1 sequence with K72R, G76A
# [6] = molecular target: T6, PUM1 PUF domain R2-RRH N899R + Y900R + Q903H (Homo sapiens) (UniProt Q14671)
# T6 sequence: T1 sequence with K72R, K73R, G76H
# [7] = molecular target: T7, PUM1 PUF domain R2-RRS N899R + Y900R + Q903S (Homo sapiens) (UniProt Q14671)
# T7 sequence: T1 sequence with K72R, K73R, G76S
# [8] = molecular target: T8, PUM1 PUF domain R2-SWP N899S + Y900W + Q903P (Homo sapiens) (UniProt Q14671)
# T8 sequence: T1 sequence with K72S, K73W, G76P
# [9] = molecular target: T9, PUM1 PUF domain R1-CCK S863C + R864C + Q867K (Homo sapiens) (UniProt Q14671)
# T9 sequence: T1 sequence with S36C, R37C, Q40K, K72N, K73Y, G76Q
# [10] = molecular target: T10, PUM1 PUF domain R1-GFE S863G + R864F + Q867E (UniProt Q14671)
# T10 sequence: T1 sequence with S36G, R37F, Q40E, K72N, K73Y, G76Q
# [11] = molecular target: T11, PUM1 PUF domain R1-KFR S863K + R864F + Q867R (Homo sapiens) (UniProt Q14671)
# T11 sequence: T1 sequence with S36K, R37F, Q40R, K72N, K73Y, G76Q
# [12] = molecular target: T12, PUM1 PUF domain R1-NIS S863N + R864I + Q867S (Homo sapiens) (UniProt Q14671)
# T12 sequence: T1 sequence with S36N, R37I, Q40S, K72N, K73Y, G76Q
# [13] = molecular target: T13, PUM1 PUF domain R1-QLD S863Q + R864L + Q867D (UniProt Q14671)
# T13 sequence: T1 sequence with S36Q, R37L, Q40D, K72N, K73Y, G76Q
# [14] = molecular target: T14, PUM1 PUF domain R1-TFE S863T + R864F + Q867E (UniProt Q14671)
# T14 sequence: T1 sequence with S36T, R37F, Q40E, K72N, K73Y, G76Q
# [15] = molecular target: T15, PUM1 PUF domain R1-TGE S863T + R864G + Q867E (UniProt Q14671)
# T15 sequence: T1 sequence with S36T, R37G, Q40E, K72N, K73Y, G76Q
# [16] = molecular target: T16, PUM1 PUF domain R1-TVE S863T + R864V + Q867E (Homo sapiens) (UniProt Q14671)
# T16 sequence: T1 sequence with S36T, R37V, Q40E, K72N, K73Y, G76Q
# [17] = molecular target: T17, PUM1 PUF domain R1-VTW S863V + R864T + Q867W (UniProt Q14671)
# T17 sequence: T1 sequence with S36V, R37T, Q40W, K72N, K73Y, G76Q
# [18] = molecular target: T18, PUM1 PUF domain R6-SWD R7-NPG N1043S + Y1044W + Q1047D + S1079N + N1080P + E1083G (UniProt Q14671)
# T18 sequence: T1 sequence with K72N, K73Y, G76Q, N216S, Y217W, Q220D, S252N, N253P, E256G
# [19] = molecular target: T19, PUM1 PUF domain R1-KIR S863K + R864I + Q867R (Homo sapiens) (UniProt Q14671)
# T19 sequence: T1 sequence with S36K, R37I, Q40R, K72N, K73Y, G76Q
# [20] = molecular target: T20, PUM1 PUF domain R1-RWD S863R + R864W + Q867D (UniProt Q14671)
# T20 sequence: T1 sequence with S36R, R37W, Q40D, K72N, K73Y, G76Q
sequence,measurement,setting,value
GGCUAGAACUAGUGGAUCCCCCGGCGCCCGGCGGCUCGAGCCCGGGUAAGUGUAAAUAGUCUGCAUGCCGCCGGGCGCCAUGCCUGCAGGUCGACUCUAGAAAACAUG,binding signal (log2 enrichment (interaction score)),[1],-3.74
same,binding signal (log2 enrichment (interaction score)),[2],-3.04
same,binding signal (log2 enrichment (interaction score)),[3],-3.88
same,binding signal (log2 enrichment (interaction score)),[4],-4.18
same,binding signal (log2 enrichment (interaction score)),[5],-6.26
same,binding signal (log2 enrichment (interaction score)),[6],-4.29
same,binding signal (log2 enrichment (interaction score)),[7],-3.6
same,binding signal (log2 enrichment (interaction score)),[8],-4.34
GGCUAGAACUAGUGGAUCCCCCGGCGCCCGGCGGCUCGAGCCCGGGUAAGUGUAAAUCGUCUGCAUGCCGCCGGGCGCCAUGCCUGCAGGUCGACUCUAGAAAACAUG,binding signal (log2 enrichment (interaction score)),[9],-0.26
same,binding signal (log2 enrichment (interaction score)),[10],-3.19
same,binding signal (log2 enrichment (interaction score)),[11],-1.94
same,binding signal (log2 enrichment (interaction score)),[12],-1.12
same,binding signal (log2 enrichment (interaction score)),[13],< -7.56
same,binding signal (log2 enrichment (interaction score)),[14],-3.34
same,binding signal (log2 enrichment (interaction score)),[15],< -9.21
same,binding signal (log2 enrichment (interaction score)),[16],-1.16
same,binding signal (log2 enrichment (interaction score)),[17],< -7.47
same,binding signal (log2 enrichment (interaction score)),[18],-2.42
GGCUAGAACUAGUGGAUCCCCCGGCGCCCGGCGGCUCGAGCCCGGGUAAGUGUAAAUUGUCUGCAUGCCGCCGGGCGCCAUGCCUGCAGGUCGACUCUAGAAAACAUG,binding signal (log2 enrichment (interaction score)),[19],1.03
same,binding signal (log2 enrichment (interaction score)),[20],-2.62

# Another view of some results above:
sequence	measurement	setting	value
GGCUAGAACUAGUGGAUCCCCCGGCGCCCGGCGGCUCGAGCCCGGGUAAGUGUAAAUAGUCUGCAUGCCGCCGGGCGCCAUGCCUGCAGGUCGACUCUAGAAAACAUG	binding signal (log2 enrichment (interaction score))	[5]	-6.26
same	binding signal (log2 enrichment (interaction score))	[6]	-4.29
same	binding signal (log2 enrichment (interaction score))	[7]	-3.6
same	binding signal (log2 enrichment (interaction score))	[8]	-4.34
